Measured values from the supplement of paper PMC10735217.
Where a name gives a salt, the structure may show the parent alone. Some of the results follow. Single values are uncertain here, since repeats match poorly.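 In a drug-repurposing library screen, luminescence reads luciferase driven by eight TEAD-binding elements, stably integrated into human kidney-derived cells. Compounds scoring over five robust Z scores above the plate mean are called hits.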

System: HEK293A TEAD-LUC reporter
Assay: TEAD-luciferase reporter activity (YAP activation), robust Z score vs plate; higher = stronger YAP/TEAD activation
Conditions: 24 h

Compound | TEAD-luciferase reporter activity (compound concentration: 200 nM) | TEAD-luciferase reporter activity (compound concentration: 2 uM) | TEAD-luciferase reporter activity (compound concentration: 10 uM)
Cc1ccc2nc(N)[nH]c(=O)c2c1Sc1ccncc1 [Nolatrexed dihydrochloride] | inactive: -0.0326 | inactive: 0.197 | inactive: 1.34
CCC(=O)[C@@]1(O)CC[C@H]2[C@@H]3CCC4=CC(=O)CC[C@]4(C)C3[C@@H](O)C[C@@]21C (some centres not stated) | inactive: 0.383 | inactive: -1.08 | inactive: 0.409
CC(C(=O)O)c1ccc(CC2CCCC2=O)cc1 (configuration not stated) [loxoprofen] | inactive: -0.202 | inactive: 0.23 | inactive: 2.26
CC(C)(C)OC(=O)CN(C(=O)CNC(=O)Nc1cccc(C(=O)O)c1)c1ccccc1C(=O)c1ccccc1 | inactive: -0.255 | inactive: -1.08 | inactive: -1.02
O=C(c1ccc(Cl)cc1)N1CCC2(CC1)Cc1ccccc1NC2=O | inactive: -2.8 |  | inactive: 1.68
COc1ccc(-c2cc(=O)c3c(O)c(OC)c(O)cc3o2)cc1OC | inactive: 0.322 | inactive: -0.116 | inactive: -2.36
COC(=O)C1=C(C)NC(C)=C(C(=O)O[C@@H]2CCCN(Cc3ccccc3)C2)[C@@H]1c1cccc([N+](=O)[O-])c1 [benidipine hydrochloride] | inactive: -1.38 | inactive: 0.178 | inactive: 0.535
O=C(O)C[C@H]1CCCCN1C(=O)/C=C/c1c(-c2ccccc2)nn2ccccc12 | inactive: -1.14 | inactive: 1.6 | inactive: 0.408
Cc1ccc2oc(CN(Cc3ccccc3)C(=O)Nc3c(F)cc(F)cc3F)c(-c3ccc(Cl)cc3)c2c1 | inactive: 0.085 | inactive: 0.362 | inactive: 2.05
CC(C(=O)O)c1ccc(C2=CCCCC2)cc1 (configuration not stated) | inactive: -0.682 | inactive: -0.443 | inactive: 0.509
CCn1cc(C(=O)O)c(=O)c2ccc(-c3ccncc3)cc21 | inactive: -0.301 | inactive: -0.625 | inactive: 4.8
c1ccc(CCNc2nc(-c3ccccc3)cs2)cc1 [fanetizole] | active: 6.16 | inactive: 1.65 | inactive: -0.302
Cc1ccccc1N1CCN(C2CCc3cc(O)ccc3C2)CC1 (configuration not stated) [Tolnapersine] | inactive: -0.214 |  | inactive: -1.21
O=C(CCCCCCNC(=O)c1cnc(N(c2ccccc2)c2ccccc2)nc1)NO [ricolinostat] |  | active: 14 | 
O=C(CCCCCCNC(=O)c1cnc(N(c2ccccc2)c2ccccc2)nc1)NO | inactive: -1.07 |  | active: 7.04
CCN(CC)CCCNC(=O)C1Cc2cc(OC)c(OC)cc2S(=O)(=O)O1 (configuration not stated) | inactive: -1.25 | inactive: 1.36 | inactive: 1.64
CN(C)CCCN1c2ccccc2CCc2ccccc21 | inactive: 0.0579 |  | inactive: 1.78
CN(C)CCCN1c2ccccc2CCc2ccccc21 [Imipramine hydrochloride] |  | inactive: 1.09 | 
O=C1N(c2ccccc2)c2ccccc2C12CCN(CC1CCCCC1)C2 (configuration not stated) | inactive: -2.64 |  | inactive: 0.433
O=C1CCc2c(Oc3ccc4c(c3)C3C(O4)C3c3nc4ccc(C(F)(F)F)cc4[nH]3)ccnc2N1 (configuration not stated) | inactive: -0.173 | inactive: -2.16 | inactive: 3.15

Compound | TEAD-luciferase reporter activity (compound concentration: 200 nM) | TEAD-luciferase reporter activity (compound concentration: 2 uM) | TEAD-luciferase reporter activity (compound concentration: 10 uM)
CC[C@H]1OC(=O)C(C)[C@@H](OC2C[C@@](C)(OC)C(O)[C@H](C)O2)[C@H](C)[C@@H](OC2OC(C)CC(N(C)C)[C@H]2O)[C@](C)(O)CC(C)/C(=N/OC)C(C)C(O)[C@]1(C)O (some centres not stated) [Lexithromycin] | inactive: -1.31 |  | inactive: 3.21
COC(=S)NCCn1c([N+](=O)[O-])cnc1C | inactive: -2.09 | inactive: 2.93 | inactive: 0.934
CC(=O)CCN1CCC2=C(C)c3ccccc3C2C1 (configuration not stated) | inactive: 1.92 | inactive: -2.17 | inactive: 3.05
O=C(O)c1ccc(OCCc2c(CCNS(=O)(=O)Cc3ccc(Cl)c(Cl)c3)n(C(c3ccccc3)c3ccccc3)c3ccc(Cl)cc23)cc1 | inactive: -2.73 | inactive: 0.473 | inactive: 0.197
COc1ccccc1N1CCN(CC(O)COc2cc(OC)c(OC)c(OC)c2)CC1 (configuration not stated) [Enciprazine] | inactive: -0.437 | inactive: 1.25 | inactive: 1.43
CCOc1cc(N)c(Cl)cc1C(=O)NCC1CN(Cc2ccc(F)cc2)CCO1 (configuration not stated) [Mosapride citrate] |  | inactive: -2.29 | 
CCOc1cc(N)c(Cl)cc1C(=O)NCC1CN(Cc2ccc(F)cc2)CCO1 (configuration not stated) | inactive: -2.59 |  | inactive: -0.28
COc1ccc2cc1Oc1ccc(cc1)C[C@H]1c3c(cc4c(c3Oc3cc5c(cc3OC)CCN(C)[C@@H]5C2)OCO4)CCN1C [Cepharanthine] | inactive: -0.817 | inactive: 0.835 | inactive: 4.15
Cc1ncc(C[n+]2csc(CCO)c2C)c(N)n1 |  | inactive: 0.643 | 
Cc1ncc(C[n+]2csc(CCO)c2C)c(N)n1 [Thiamine HCl (Vitamin B1)] | inactive: -1.03 |  | inactive: -0.148
Cn1c(=O)c2c(ncn2CCOC(=O)C(C)(C)Oc2ccc(Cl)cc2)n(C)c1=O [Etofilline clofibrate] | inactive: 0.177 | inactive: -0.965 | active: 7.05
NC(=O)NC1NC(=O)NC1=O (configuration not stated) [allantoin] | inactive: -2.42 | inactive: -1.59 | inactive: -0.108
CC(C)(C)OC(=O)N[C@@H](Cc1ccccc1)[C@@H](O)CNC[C@H](O)[C@H](Cc1ccccc1)NC(=O)OC(C)(C)C | inactive: -0.174 | inactive: -0.111 | inactive: 1.08
CN1[C@@H]2CC[C@H]1C[C@@H](NC(=O)N1CC(C)(C)c3ccccc31)C2 | inactive: 0.843 | inactive: -0.745 | inactive: -0.469
CC/C=C\C/C=C\C/C=C\C/C=C\C/C=C\CCCCOC(CC)C(=O)O (configuration not stated) [Icosabutate] |  | inactive: -0.784 | inactive: 3.21
CC(=O)OC(C)OC(=O)C(C)c1ccc(-c2ccccc2)c(F)c1 (configuration not stated) [lipo-flurbiprofen] | inactive: -1.16 | inactive: -1.5 | inactive: -0.479
CN(C/C=C/C#CC(C)(C)C)Cc1cccc2ccccc12 [terbinafine hydrochloride, Apricus Biosciences] |  | inactive: -1.39 | 
CN(C/C=C/C#CC(C)(C)C)Cc1cccc2ccccc12 [Terbinafine hydrochloride] | inactive: -0.913 |  | inactive: -0.584
O=C1N=c2cc([N+](=O)[O-])cc(CNCP(=O)(O)O)c2=NC1=O [Becampanel] | inactive: -1.5 | inactive: -0.924 | inactive: -2.05
COc1ccc(Cl)c(-c2ccc(NC(=O)c3ccnn3C)nc2N)c1 | inactive: 0.0697 | active: 9.12 | active: 8.78

Compound | TEAD-luciferase reporter activity (compound concentration: 200 nM) | TEAD-luciferase reporter activity (compound concentration: 2 uM) | TEAD-luciferase reporter activity (compound concentration: 10 uM)
CCOC(=O)C(CCc1ccccc1)NC(C)C(=O)N1CC2(CC1C(=O)O)SCCS2 (configuration not stated) [spirapril] | inactive: 2.47 | inactive: -1.55 | inactive: 0.964
COc1ccc(C2CNC(=O)C2)cc1OC1CCCC1 (configuration not stated) | inactive: -1.22 |  | inactive: 1.16
COc1ccc(C2CNC(=O)C2)cc1OC1CCCC1 (configuration not stated) [rolipram] |  | inactive: 2.26 | 
C[Si](C)(Cc1ccc(F)cc1)CN1CCCCC1 [Silperisone hydrochloride] | inactive: 1.2 | inactive: 0.14 | inactive: -0.82
NC(=O)N(O)CCC#C[C@@H]1CC[C@@H](COc2ccc(F)cc2)O1 | inactive: -2.02 | inactive: -0.9 | active: 6.91
NC(CC(=O)[O-])C(=O)[O-] (configuration not stated) [magnesium aspartate HCl] | inactive: -1.08 | inactive: -1.36 | inactive: 1.48
CCN(CC)CCOCCC1=CCC2CC1C2(C)C (configuration not stated) | inactive: -0.456 | inactive: -1.82 | inactive: -0.227
COc1cc2c(cc1OC)CN(C(=O)[C@@H]1CCCN(CCNC(=O)c3ccc(F)cc3)C1)CC2 | inactive: 0.00665 | inactive: -1.11 | inactive: 2.2
C[C@](N)(CO)C(=O)Nc1ccc(OCCc2ccc(-c3ccccc3)cc2)cc1 | inactive: 0.0729 | inactive: 1.19 | inactive: 1.06
COc1ccccc1-c1ccc(C(=O)N2CCC(NC(=O)c3ccc(F)cc3)CC2)cc1 | inactive: -1.92 |  | inactive: -0.256
CCCOc1ccc(-c2cn3ccccc3n2)cc1 | active: 7.38 | inactive: -1.17 | inactive: 0.535
CCOc1ccc(NC(=O)c2cccc3c2OC[C@H](CO)N3c2ccc(C)cn2)cn1 | inactive: 3.3 | inactive: -0.298 | inactive: 0.904
CC1NC(=O)C2(CCCC2)NC1=O (configuration not stated) [alaptide] | inactive: 0.156 | inactive: -0.214 | inactive: 0.323
O=C1Nc2ccc(Cl)cc2C(C#CC2CC2)(C(F)(F)F)O1 (configuration not stated) [efavirenz sprinkle, BMS] | inactive: 1.69 |  | inactive: -0.0496
O=C1Nc2ccc(Cl)cc2C(C#CC2CC2)(C(F)(F)F)O1 (configuration not stated) [efavirenz sprinkle] |  | inactive: -1.36 | 
CCCCCCCC(=O)O [octanoic acid] | inactive: -1.09 | inactive: 0.0433 | inactive: -1.15
Cc1nc(N2CCN(Cc3ccc(F)cc3)C2=O)sc1C(=O)NCc1cccnc1 | inactive: 0.654 | inactive: -0.763 | inactive: -0.0798
COc1ccc(S(=O)(=O)Nc2cc(C(=O)NC(C)(C)C)ccc2Oc2cc(F)c(CC(=O)O)cc2Cl)cc1 | inactive: -0.529 | inactive: 1.03 | inactive: 0.321

Given tab-delimited: entries from further up
Compound	TEAD-luciferase reporter activity (compound concentration: 200 nM)	TEAD-luciferase reporter activity (compound concentration: 2 uM)	TEAD-luciferase reporter activity (compound concentration: 10 uM)
CCOC(=O)C(CCc1ccccc1)NC(C)C(=O)N1CC2(CC1C(=O)O)SCCS2 (configuration not stated) [spirapril]	inactive: 2.47	inactive: -1.55	inactive: 0.964
COc1cc2c(cc1OC)CN(C(=O)[C@@H]1CCCN(CCNC(=O)c3ccc(F)cc3)C1)CC2	inactive: 0.00665	inactive: -1.11	inactive: 2.2
COc1ccccc1-c1ccc(C(=O)N2CCC(NC(=O)c3ccc(F)cc3)CC2)cc1	inactive: -1.92		inactive: -0.256
O=C1Nc2ccc(Cl)cc2C(C#CC2CC2)(C(F)(F)F)O1 (configuration not stated) [efavirenz sprinkle]		inactive: -1.36	
